No constants are given. Whether binding was seen depends on the method and setting. Some results given as binding are weak or reduced against the parent protein; the word gives no strength.
Legend:
[1] = target: ILT4 on CHO-ILT4 cells (Manufacturer: Kang Yuan Bochuang, Cat: KC-1473) (UniProt Q8N423); assay: flow cytometry titration on CHO-ILT4 cells, anti-camelid VHH PE secondary
[2] = target: Human LILRB2/CD85d/ILT4 Protein, His Tag (Manufacturer: KACTUS, Cat: LIL-HM4B2) (human) (UniProt Q8N423); assay: ELISA, Human LILRB2 coated at 1 ug/mL, anti-VHH-HRP secondary, OD450
[3] = target: ILT4 on CHO-ILT4 cells (Manufacturer: Kang Yuan Bochuang, Cat: KC-1473) (UniProt Q8N423); assay: flow cytometry on CHO-ILT4 cells, single concentration 2.5 ug/mL, anti-VHH PE detection
[4] = target: Human LILRB2/CD85d/ILT4 Protein, His Tag (Manufacturer: KACTUS, Cat: LIL-HM4B2) (human) (UniProt Q8N423); assay: ELISA, plate coated with Human LILRB2 at 1 ug/mL, anti-VHH-HRP detection
[5] = target: ILT4 on CHO-ILT4 cells (Manufacturer: Kang Yuan Bochuang, Cat: KC-1473) (UniProt Q8N423); assay: flow cytometry on CHO-ILT4 cells, single concentration (2.5 ug/mL final per paragraph 56), anti-camelid VHH PE secondary

Sequences of proteins named here, by UniProt entry; tags and fusion partners are left off. A change or cut given only in a name is not applied to a line headed by its entry. Residues count along the entry.
UniProt Q8N423: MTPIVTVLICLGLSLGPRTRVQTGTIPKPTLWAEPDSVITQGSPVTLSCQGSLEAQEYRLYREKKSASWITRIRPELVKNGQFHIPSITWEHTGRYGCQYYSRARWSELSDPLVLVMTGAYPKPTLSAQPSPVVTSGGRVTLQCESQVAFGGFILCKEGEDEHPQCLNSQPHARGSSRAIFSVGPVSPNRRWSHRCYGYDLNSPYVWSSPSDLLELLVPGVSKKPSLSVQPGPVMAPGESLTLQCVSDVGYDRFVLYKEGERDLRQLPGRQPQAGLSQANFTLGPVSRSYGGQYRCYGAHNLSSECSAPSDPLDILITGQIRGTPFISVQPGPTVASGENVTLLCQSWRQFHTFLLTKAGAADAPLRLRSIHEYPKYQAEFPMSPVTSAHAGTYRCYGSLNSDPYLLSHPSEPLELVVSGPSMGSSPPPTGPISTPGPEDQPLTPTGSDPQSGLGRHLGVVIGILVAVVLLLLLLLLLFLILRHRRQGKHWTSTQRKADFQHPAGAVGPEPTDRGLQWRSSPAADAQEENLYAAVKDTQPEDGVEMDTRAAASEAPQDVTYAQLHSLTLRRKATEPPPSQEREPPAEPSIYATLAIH
ILT4 on CHO-ILT4 cells (Manufacturer: Kang Yuan Bochuang, Cat: KC-1473): residues 22-597 of Q8N423
Human LILRB2/CD85d/ILT4 Protein, His Tag (Manufacturer: KACTUS, Cat: LIL-HM4B2): residues 22-460 of Q8N423

Measured: binding

B1: the antibody of the present invention (anti-ILT4 single-domain antibody, alpaca VHH, SEQ ID NO: 4) (VHH)
VHH: EVQLVESGGGLGQAGGSLRLSCVVSGRTFSRYAMGWFRQAPGKEREFVAAISWSPGDITTYADSVRGRFTISRDNAKNTVYLQMNSLKPEDTAVYYCAADPTAWGTQYDYWGQGTQVTVSS
notes: VHH screened from an alpaca immune library
binds: [1] | [2] | [3] | [4] | [5]
